Some of the results follow.
Each sequence was assayed against OsWRKY34 (Oryza sativa, UniProt Q0JBA9 1-250) (assay: protein-binding microarray (RPBM); PBS, 2% BSA, 51.3 ng/ul salmon testes DNA, 50 uM zinc acetate, 200 nM TF, 25 C, 1 h; high values mean tight binding). Conditions: protein: recombinant; tags: N-terminal polyhistidine and DsRed monomer fusion (pET32a); label: CyDye5-dUTP incorporated in the synthesized complementary strand; 3' TTTTT single-stranded linker to array surface; dsDNA, one strand shown.
In short: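 Binding signal is defined as the fluorescence intensity of each feature in arbitrary units, read on an Axon 4000B scanner. Transcription factors with N-terminal polyhistidine and DsRed fusions came from E. coli BL21-CodonPlus and were purified on Ni–NTA. They were incubated at 200 nM for 1 h at 25 °C on a custom Agilent array that had been made double-stranded with Cy5-dUTP, with 50 µM zinc acetate present, and the array was washed.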

Protein sequences, listed by entry. Tags and fused reporters are not part of them.
UniProt Q0JBA9, entry or part of it: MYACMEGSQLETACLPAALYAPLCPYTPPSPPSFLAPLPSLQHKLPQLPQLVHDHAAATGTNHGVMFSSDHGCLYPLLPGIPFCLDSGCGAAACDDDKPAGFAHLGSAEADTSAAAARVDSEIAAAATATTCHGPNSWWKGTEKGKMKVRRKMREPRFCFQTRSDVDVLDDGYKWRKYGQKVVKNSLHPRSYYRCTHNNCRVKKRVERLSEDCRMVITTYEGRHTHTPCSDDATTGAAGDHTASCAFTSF

Sequence	binding signal
TTAGTGTTACCGCCTTATCTTTTCGTTTATACTTTGAATTCGGAGTCACCTAGTGCAG	11700 fluorescence intensity (a.u.)
TTTATCGTTTAATTGGGTCCTGTAGTACATCAATCTTGTCCGGAGTCACCTAGTGCAG	8670 fluorescence intensity (a.u.)
CTAACGCGGACGCCCATCTCCACCGTCCGATCTCGCCACTCGGAGTCACCTAGTGCAG	10300 fluorescence intensity (a.u.)
TCACAACACATGTTCAGTATCTTGTTTATCTGGATTAAAACGGAGTCACCTAGTGCAG	10400 fluorescence intensity (a.u.)
TGCATGATTTGTTTCAGCGAGTTTCCTGGTAACTTTTCCACGGAGTCACCTAGTGCAG	8210 fluorescence intensity (a.u.)
ACGTGGATTTAGCCTAAAAGTGGTAATTGCTGATTATTCCCGGAGTCACCTAGTGCAG	8110 fluorescence intensity (a.u.)
GGTGGATCCATACTACTGCGTTGCTGGCCTTGTTTCATTCCGGAGTCACCTAGTGCAG	9470 fluorescence intensity (a.u.)
ACGTATGCTGATCATCCTCTTTCTCTAAAATATATATTTACGGAGTCACCTAGTGCAG	8330 fluorescence intensity (a.u.)
AGATTCACTTGACCCACACAGCACACATACACATACTGACCGGAGTCACCTAGTGCAG	8440 fluorescence intensity (a.u.)
TCACCAACCCGACGTGGCCGCTCTTCCACGTCAACATCCTCGGAGTCACCTAGTGCAG	8820 fluorescence intensity (a.u.)
CCATTTATGCCGTCCTTGGGCCTTACGGAAACTTAAAAATCGGAGTCACCTAGTGCAG	8750 fluorescence intensity (a.u.)
GTTCAGTTAAGACGTACGTCTGTGGAAATAAACTTATTTTCGGAGTCACCTAGTGCAG	10100 fluorescence intensity (a.u.)
ACCTGTTCTCTGTCCAAATTAGCAGACATATTTTTTTTAACGGAGTCACCTAGTGCAG	9080 fluorescence intensity (a.u.)
AAATTTTGTTATTTCTACCCATTACTTGTTTCAAATTGTTCGGAGTCACCTAGTGCAG	8560 fluorescence intensity (a.u.)
TTCATTGTTAAATATACTTTCATGTACACATATAGTTTTACGGAGTCACCTAGTGCAG	9420 fluorescence intensity (a.u.)
TACTCTCTCTGTCCCCTTTTGTTTTTTTTCCTGTATACTGCGGAGTCACCTAGTGCAG	8690 fluorescence intensity (a.u.)
GATTCCGTAGTCGTCGTCATCAGTAGTCTATCGATTTTGCCGGAGTCACCTAGTGCAG	9800 fluorescence intensity (a.u.)
GCCCGTGTCTTGTGTGTTTCCGCTCTTGCGAACCTTCCACCGGAGTCACCTAGTGCAG	13900 fluorescence intensity (a.u.)
TGCCTTCTGAGTTCTGAAACGTTGTATCCATGTGAAATTTCGGAGTCACCTAGTGCAG	8710 fluorescence intensity (a.u.)
GCCAAGTGACAATCTAAAATCTATCCATTGATTTTCTTTTCGGAGTCACCTAGTGCAG	8100 fluorescence intensity (a.u.)
GGTCCCGTTCCGATCCTCACTCGGTCACTCATCTTTCCTTCGGAGTCACCTAGTGCAG	8730 fluorescence intensity (a.u.)

Quoted from the listing.
Entry for ACGTATGCTGATCATCCTCTTTCTCTAAAATATATATTTACGGAGTCACCTAGTGCAG under binding signal: 8330 fluorescence intensity (a.u.)
Entry for TTCATTGTTAAATATACTTTCATGTACACATATAGTTTTACGGAGTCACCTAGTGCAG under binding signal: 9420 fluorescence intensity (a.u.)
Entry for AGATTCACTTGACCCACACAGCACACATACACATACTGACCGGAGTCACCTAGTGCAG under binding signal: 8440 fluorescence intensity (a.u.)

Later entries:

Sequence	binding signal
GGGGAGTCGTTCTAACCGGTTTTCTGGTTGAGGGGTACAACGGAGTCACCTAGTGCAG	13500 fluorescence intensity (a.u.)
TATTTCTTGGCCATACTTTTGCCACATGCCACAACTTACCCGGAGTCACCTAGTGCAG	10500 fluorescence intensity (a.u.)
GAGGAATTCTTCCAGTAGTATCGGCCATTTCCCCTACTTTCGGAGTCACCTAGTGCAG	10000 fluorescence intensity (a.u.)
CCGCTGCTTCTCCTGTTCGTCTCCTTTCTCAGTAACTGCACGGAGTCACCTAGTGCAG	8180 fluorescence intensity (a.u.)
GCACTTGACTTGCGTGGACTCCAACTTCCCATTTTACCCCCGGAGTCACCTAGTGCAG	9840 fluorescence intensity (a.u.)
GGAGTCAGGGGTGGTTCGGCCTCTCATCACCGACCTTCACCGGAGTCACCTAGTGCAG	9490 fluorescence intensity (a.u.)
AATCCATCATTAGTAAATGTTTACTGTAGCACCATATTGTCGGAGTCACCTAGTGCAG	8850 fluorescence intensity (a.u.)
TTTATTTGCACTGTTTGACCATTCGTATTATTCAAAATTTCGGAGTCACCTAGTGCAG	9990 fluorescence intensity (a.u.)
ATGCCCTGTTACCTGTGTGTGATTTCTTTGTGCTCCATAACGGAGTCACCTAGTGCAG	17600 fluorescence intensity (a.u.)
CGGCGTCTCCCAATCCGTGTCAGCCACATCGCCCCTTAATCGGAGTCACCTAGTGCAG	8640 fluorescence intensity (a.u.)
TTAATAAGACAAACGGTCAACATATTTGAAAAAGTCAACGCGGAGTCACCTAGTGCAG	12700 fluorescence intensity (a.u.)
TAACTATGGGCCTGTTCACTTTAATGCCATTTTTAACCTTCGGAGTCACCTAGTGCAG	8390 fluorescence intensity (a.u.)
TGAGTGACATCTAAAATCTCGCATTCCTTGCATCTATCCCCGGAGTCACCTAGTGCAG	8190 fluorescence intensity (a.u.)
AGTCCCCGACCTTTCCGTCCGTTCAGCGCCCATCCCATTGCGGAGTCACCTAGTGCAG	8150 fluorescence intensity (a.u.)
GGAGGGAGTATATTATATGCTTGTCCTAGGCTGACACGCCCGGAGTCACCTAGTGCAG	8760 fluorescence intensity (a.u.)
TTGGATCACTCTGCCTTGTGACTCTTGCCATTTCTACTATCGGAGTCACCTAGTGCAG	8430 fluorescence intensity (a.u.)
TGTGCATTTCTTGAAATGTTTTTTTGGGGTATAATTTCACCGGAGTCACCTAGTGCAG	13200 fluorescence intensity (a.u.)
CTCCTCTCACTCGTCTCGTCCACGGCGTAATCGCCTTGCGCGGAGTCACCTAGTGCAG	9790 fluorescence intensity (a.u.)
CTTTCATCCGTCCTTATAAGTCCAGATATAACATATCATACGGAGTCACCTAGTGCAG	8230 fluorescence intensity (a.u.)
GATCTCTTTTTCTTTCTTTGGCCGCTGTAAAATAGCGAAGCGGAGTCACCTAGTGCAG	9910 fluorescence intensity (a.u.)
TCACCGGCCTCCTCCTCCTTCGCCGCTTGCTCCTACCCCTCGGAGTCACCTAGTGCAG	9380 fluorescence intensity (a.u.)

— paper PMC7819943, “Rice protein-binding microarrays: a tool to detect cis-acting elements near promoter regions in rice”
